In US12419871B2, “Biomolecules involved in Alzheimer's disease” (ELECTROPHORETICS LIMITED, priority 2015, dated 2025):

B1: Q86TV6 (protein, UniProt Q86TV6 1-843, looked up)
chain: MATKKAGSRLETEIERCRSECQWERIPELVKQLSAKLIANDDMAELLLGESKLEQYLKEHPLRQGASPRGPKPQLTEVRKHLTAALDRGNLKSEFLQESNLIMAKLNYVEGDYKEALNIYARVGLDDLPLTAVPPYRLRVIAEAYATKGLCLEKLPISSSTSNLHVDREQDVITCYEKAGDIALLYLQEIERVILSNIQNRSPKPGPAPHDQELGFFLETGLQRAHVLYFKNGNLTRGVGRFRELLRAVETRTTQNLRMTIARQLAEILLRGMCEQSYWNPLEDPPCQSPLDDPLRKGANTKTYTLTRRARVYSGENIFCPQENTEEALLLLLISESMANRDAVLSRIPEHKSDRLISLQSASVVYDLLTIALGRRGQYEMLSECLERAMKFAFEEFHLWYQFALSLMAAGKSARAVKVLKECIRLKPDDATIPLLAAKLCMGSLHWLEEAEKFAKTVVDVGEKTSEFKAKGYLALGLTYSLQATDASLRGMQEVLQRKALLAFQRAHSLSPTDHQAAFYLALQLAISRQIPEALGYVRQALQLQGDDANSLHLLALLLSAQKHYHDALNIIDMALSEYPENFILLFSKVKLQSLCRGPDEALLTCKHMLQIWKSCYNLTNPSDSGRGSSLLDRTIADRRQLNTITLPDFSDPETGSVHATSVAASRVEQALSEVASSLQSSAPKQGPLHPWMTLAQIWLHAAEVYIGIGKPAEATACTQEAANLFPMSHNVLYMRGQIAELRGSMDEARRWYEEALAISPTHVKSMQRLALILHQLGRYSLAEKILRDAVQVNSTAHEVWNGLGEVLQAQGNDAAATECFLTALELEASSPAVPFTIIPRVL
modifications: full-length
B2: Q9Y2W1 (protein, UniProt Q9Y2W1 1-955, looked up)
chain: MSKTNKSKSGSRSSRSRSASRSRSRSFSKSRSRSRSLSRSRKRRLSSRSRSRSYSPAHNRERNHPRVYQNRDFRGHNRGYRRPYYFRGRNRGFYPWGQYNRGGYGNYRSNWQNYRQAYSPRRGRSRSRSPKRRSPSPRSRSHSRNSDKSSSDRSRRSSSSRSSSNHSRVESSKRKSAKEKKSSSKDSRPSQAAGDNQGDEAKEQTFSGGTSQDTKASESSKPWPDATYGTGSASRASAVSELSPRERSPALKSPLQSVVVRRRSPRPSPVPKPSPPLSSTSQMGSTLPSGAGYQSGTHQGQFDHGSGSLSPSKKSPVGKSPPSTGSTYGSSQKEESAASGGAAYTKRYLEEQKTENGKDKEQKQTNTDKEKIKEKGSFSDTGLGDGKMKSDSFAPKTDSEKPFRGSQSPKRYKLRDDFEKKMADFHKEEMDDQDKDKAKGRKESEFDDEPKFMSKVIGANKNQEEEKSGKWEGLVYAPPGKEKQRKTEELEEESFPERSKKEDRGKRSEGGHRGFVPEKNFRVTAYKAVQEKSSSPPPRKTSESRDKLGAKGDFPTGKSSFSITREAQVNVRMDSFDEDLARPSGLLAQERKLCRDLVHSNKKEQEFRSIFQHIQSAQSQRSPSELFAQHIVTIVHHVKEHHFGSSGMTLHERFTKYLKRGTEQEAAKNKKSPEIHRRIDISPSTFRKHGLAHDEMKSPREPGYKAEGKYKDDPVDLRLDIERRKKHKERDLKRGKSRESVDSRDSSHSRERSAEKTEKTHKGSKKQKKHRRARDRSRSSSSSSQSSHSYKAEEYTEETEEREESTTGFDKSRLGTKDFVGPSERGGGRARGTFQFRARGRGWGRGNYSGNNNNNSNNDFQKRNREEEWDPEYTPKSKKYYLHDDREGEGSDKWVSRGRGRGAFPRGRGRFMFRKSSTSPKWAHDKFSGEEGEIEDDESGTENREEKDNIQPTTE
modifications: full-length
B3: Q5H9L2 (protein, UniProt Q5H9L2 1-206, looked up)
chain: MEKLYKENEGKPENERNLESEGKPEDEGSTEDEGKSDEEEKPDMEGKTECEGKREDEGEPGDEGQLEDEGNQEKQGKSEGEDKPQSEGKPASQAKPESQPRAAEKRPAEDYVPRKAKRKTDRGTDDSPKDSQEDLQERHLSSEEMMRECGDVSRAQEELRKKQKMGGFHWMQRDVQDPFAPRGQRGVRGVRGGGRGQKDLEDVPYV
modifications: full-length
B4: Q08629 (protein, UniProt Q08629 1-439, looked up)
chain: MPAIAVLAAAAAAWCFLQVESRHLDALAGGAGPNHGNFLDNDQWLSTVSQYDRDKYWNRFRDDDYFRNWNPNKPFDQALDPSKDPCLKVKCSPHKVCVTQDYQTALCVSRKHLLPRQKKGNVAQKHWVGPSNLVKCKPCPVAQSAMVCGSDGHSYTSKCKLEFHACSTGKSLATLCDGPCPCLPEPEPPKHKAERSACTDKELRNLASRLKDWFGALHEDANRVIKPTSSNTAQGRFDTSILPICKDSLGWMFNKLDMNYDLLLDPSEINAIYLDKYEPCIKPLFNSCDSFKDGKLSNNEWCYCFQKPGGLPCQNEMNRIQKLSKGKSLLGAFIPRCNEEGYYKATQCHGSTGQCWCVDKYGNELAGSRKQGAVSCEEEQETSGDFGSGGSVVLLDDLEYERELGPKDKEGKLRVHTRAVTEDDEDEDDDKEDEVGYIW
modifications: full-length
B5: P06727 (protein, UniProt P06727 1-396, looked up)
chain: MFLKAVVLTLALVAVAGARAEVSADQVATVMWDYFSQLSNNAKEAVEHLQKSELTQQLNALFQDKLGEVNTYAGDLQKKLVPFATELHERLAKDSEKLKEEIGKELEELRARLLPHANEVSQKIGDNLRELQQRLEPYADQLRTQVSTQAEQLRRQLTPYAQRMERVLRENADSLQASLRPHADELKAKIDQNVEELKGRLTPYADEFKVKIDQTVEELRRSLAPYAQDTQEKLNHQLEGLTFQMKKNAEELKARISASAEELRQRLAPLAEDVRGNLRGNTEGLQKSLAELGGHLDQQVEEFRRRVEPYGENFNKALVQQMEQLRQKLGPHAGDVEGHLSFLEKDLRDKVNSFFSTFKEKESQDKTLSLPELEQQQEQQQEQQQEQVQMLAPLES
modifications: full-length
B6: Q496J9 (protein, UniProt Q496J9 1-727, looked up)
chain: MEDSYKDRTSLMKGAKDIAREVKKQTVKKVNQAVDRAQDEYTQRSYSRFQDEEDDDDYYPAGETYNGEANDDEGSSEATEGHDEDDEIYEGEYQGIPSMNQAKDSIVSVGQPKGDEYKDRRELESERRADEEELAQQYELIIQECGHGRFQWALFFVLGMALMADGVEVFVVGFVLPSAETDLCIPNSGSGWLGSIVYLGMMVGAFFWGGLADKVGRKQSLLICMSVNGFFAFLSSFVQGYGFFLFCRLLSGFGIGGAIPTVFSYFAEVLAREKRGEHLSWLCMFWMIGGIYASAMAWAIIPHYGWSFSMGSAYQFHSWRVFVIVCALPCVSSVVALTFMPESPRFLLEVGKHDEAWMILKLIHDTNMRARGQPEKVFTVNKIKTPKQIDELIEIESDTGTWYRRCFVRIRTELYGIWLTFMRCFNYPVRDNTIKLTIVWFTLSFGYYGLSVWFPDVIKPLQSDEYALLTRNVERDKYANFTINFTMENQIHTGMEYDNGRFIGVKFKSVTFKDSVFKSCTFEDVTSVNTYFKNCTFIDTVFDNTDFEPYKFIDSEFKNCSFFHNKTGCQITFDDDYSAYWIYFVNFLGTLAVLPGNIVSALLMDRIGRLTMLGGSMVLSGISCFFLWFGTSESMMIGMLCLYNGLTISAWNSLDVVTVELYPTDRRATGFGFLNALCKAAAVLGNLIFGSLVSITKSIPILLASTVLVCGGLVGLCLPDTRTQVLM
modifications: full-length
B7: Q9BQ16 (protein, UniProt Q9BQ16 1-436, looked up)
chain: MLKVSAVLCVCAAAWCSQSLAAAAAVAAAGGRSDGGNFLDDKQWLTTISQYDKEVGQWNKFRDEVEDDYFRTWSPGKPFDQALDPAKDPCLKMKCSRHKVCIAQDSQTAVCISHRRLTHRMKEAGVDHRQWRGPILSTCKQCPVVYPSPVCGSDGHTYSFQCKLEYQACVLGKQISVKCEGHCPCPSDKPTSTSRNVKRACSDLEFREVANRLRDWFKALHESGSQNKKTKTLLRPERSRFDTSILPICKDSLGWMFNRLDTNYDLLLDQSELRSIYLDKNEQCTKAFFNSCDTYKDSLISNNEWCYCFQRQQDPPCQTELSNIQKRQGVKKLLGQYIPLCDEDGYYKPTQCHGSVGQCWCVDRYGNEVMGSRINGVADCAIDFEISGDFASGDFHEWTDDEDDEDDIMNDEDEIEDDDEDEGDDDDGGDDHDVYI
modifications: full-length
B8: P10599 (protein, UniProt P10599 1-105, looked up)
chain: MVKQIESKTAFQEALDAAGDKLVVVDFSATWCGPCKMIKPFFHSLSEKYSNVIFLEVDVDDCQDVASECEVKCMPTFQFFKKGQKVGEFSGANKEKLEATINELV
modifications: full-length
B9: P13726 (protein, UniProt P13726 1-295, looked up)
chain: METPAWPRVPRPETAVARTLLLGWVFAQVAGASGTTNTVAAYNLTWKSTNFKTILEWEPKPVNQVYTVQISTKSGDWKSKCFYTTDTECDLTDEIVKDVKQTYLARVFSYPAGNVESTGSAGEPLYENSPEFTPYLETNLGQPTIQSFEQVGTKVNVTVEDERTLVRRNNTFLSLRDVFGKDLIYTLYYWKSSSSGKKTAKTNTNEFLIDVDKGENYCFSVQAVIPSRTVNRKSTDSPVECMGQEKGEFREIFYIIGAVVFVVIILVIILAISLHKCRKAGVGQSWKENSPLNVS
modifications: full-length
B10: Q00577 (protein, UniProt Q00577 1-322, looked up)
chain: MADRDSGSEQGGAALGSGGSLGHPGSGSGSGGGGGGGGGGGGSGGGGGGAPGGLQHETQELASKRVDIQNKRFYLDVKQNAKGRFLKIAEVGAGGNKSRLTLSMSVAVEFRDYLGDFIEHYAQLGPSQPPDLAQAQDEPRRALKSEFLVRENRKYYMDLKENQRGRFLRIRQTVNRGPGLGSTQGQTIALPAQGLIEFRDALAKLIDDYGVEEEPAELPEGTSLTVDNKRFFFDVGSNKYGVFMRVSEVKPTYRNSITVPYKVWAKFGHTFCKYSEEMKKIQEKQREKRAACEQLHQQQQQQQEETAAATLLLQGEEEGEED
modifications: full-length
B11: Q9HCB6 (protein, UniProt Q9HCB6 1-807, looked up)
chain: MRLSPAPLKLSRTPALLALALPLAAALAFSDETLDKVPKSEGYCSRILRAQGTRREGYTEFSLRVEGDPDFYKPGTSYRVTLSAAPPSYFRGFTLIALRENREGDKEEDHAGTFQIIDEEETQFMSNCPVAVTESTPRRRTRIQVFWIAPPAGTGCVILKASIVQKRIIYFQDEGSLTKKLCEQDSTFDGVTDKPILDCCACGTAKYRLTFYGNWSEKTHPKDYPRRANHWSAIIGGSHSKNYVLWEYGGYASEGVKQVAELGSPVKMEEEIRQQSDEVLTVIKAKAQWPAWQPLNVRAAPSAEFSVDRTRHLMSFLTMMGPSPDWNVGLSAEDLCTKECGWVQKVVQDLIPWDAGTDSGVTYESPNKPTIPQEKIRPLTSLDHPQSPFYDPEGGSITQVARVVIERIARKGEQCNIVPDNVDDIVADLAPEEKDEDDTPETCIYSNWSPWSACSSSTCDKGKRMRQRMLKAQLDLSVPCPDTQDFQPCMGPGCSDEDGSTCTMSEWITWSPCSISCGMGMRSRERYVKQFPEDGSVCTLPTEETEKCTVNEECSPSSCLMTEWGEWDECSATCGMGMKKRHRMIKMNPADGSMCKAETSQAEKCMMPECHTIPCLLSPWSEWSDCSVTCGKGMRTRQRMLKSLAELGDCNEDLEQVEKCMLPECPIDCELTEWSQWSECNKSCGKGHVIRTRMIQMEPQFGGAPCPETVQRKKCRIRKCLRNPSIQKLRWREARESRRSEQLKEESEGEQFPGCRMRPWTAWSECTKLCGGGIQERYMTVKKRFKSSQFTSCKDKKEIRACNVHPC
modifications: full-length

Test: TMTcalibrator quantification of regulated proteins in AD CSF versus control
Design: species or system human
Conditions: CSF of AD patient versus control; non-modified peptides of each protein summed for three control and three AD cases

Row | Molecule | Log2 AD/Control
1 | B1 | 0.95
2 | B2 | 1.19
3 | B3 | 1.76
4 | B4 | 1.73
5 | B5 | −1.97
6 | B6 | 1.15
7 | B7 | 0.84
8 | B8 | 0.93
9 | B9 | 0.68
10 | B10 | 1.06
11 | B11 | 0.75
